Measured values published in publication PMC12586522.
No constants are given. Whether binding was seen depends on the method and setting. Binding seen in cells or lysates may run through a third protein. Some entries that bind do so weakly or less than the wild type.

Sequences of proteins named here, by UniProt entry; tags and fusion partners are left off.
UniProt Q8NFU7: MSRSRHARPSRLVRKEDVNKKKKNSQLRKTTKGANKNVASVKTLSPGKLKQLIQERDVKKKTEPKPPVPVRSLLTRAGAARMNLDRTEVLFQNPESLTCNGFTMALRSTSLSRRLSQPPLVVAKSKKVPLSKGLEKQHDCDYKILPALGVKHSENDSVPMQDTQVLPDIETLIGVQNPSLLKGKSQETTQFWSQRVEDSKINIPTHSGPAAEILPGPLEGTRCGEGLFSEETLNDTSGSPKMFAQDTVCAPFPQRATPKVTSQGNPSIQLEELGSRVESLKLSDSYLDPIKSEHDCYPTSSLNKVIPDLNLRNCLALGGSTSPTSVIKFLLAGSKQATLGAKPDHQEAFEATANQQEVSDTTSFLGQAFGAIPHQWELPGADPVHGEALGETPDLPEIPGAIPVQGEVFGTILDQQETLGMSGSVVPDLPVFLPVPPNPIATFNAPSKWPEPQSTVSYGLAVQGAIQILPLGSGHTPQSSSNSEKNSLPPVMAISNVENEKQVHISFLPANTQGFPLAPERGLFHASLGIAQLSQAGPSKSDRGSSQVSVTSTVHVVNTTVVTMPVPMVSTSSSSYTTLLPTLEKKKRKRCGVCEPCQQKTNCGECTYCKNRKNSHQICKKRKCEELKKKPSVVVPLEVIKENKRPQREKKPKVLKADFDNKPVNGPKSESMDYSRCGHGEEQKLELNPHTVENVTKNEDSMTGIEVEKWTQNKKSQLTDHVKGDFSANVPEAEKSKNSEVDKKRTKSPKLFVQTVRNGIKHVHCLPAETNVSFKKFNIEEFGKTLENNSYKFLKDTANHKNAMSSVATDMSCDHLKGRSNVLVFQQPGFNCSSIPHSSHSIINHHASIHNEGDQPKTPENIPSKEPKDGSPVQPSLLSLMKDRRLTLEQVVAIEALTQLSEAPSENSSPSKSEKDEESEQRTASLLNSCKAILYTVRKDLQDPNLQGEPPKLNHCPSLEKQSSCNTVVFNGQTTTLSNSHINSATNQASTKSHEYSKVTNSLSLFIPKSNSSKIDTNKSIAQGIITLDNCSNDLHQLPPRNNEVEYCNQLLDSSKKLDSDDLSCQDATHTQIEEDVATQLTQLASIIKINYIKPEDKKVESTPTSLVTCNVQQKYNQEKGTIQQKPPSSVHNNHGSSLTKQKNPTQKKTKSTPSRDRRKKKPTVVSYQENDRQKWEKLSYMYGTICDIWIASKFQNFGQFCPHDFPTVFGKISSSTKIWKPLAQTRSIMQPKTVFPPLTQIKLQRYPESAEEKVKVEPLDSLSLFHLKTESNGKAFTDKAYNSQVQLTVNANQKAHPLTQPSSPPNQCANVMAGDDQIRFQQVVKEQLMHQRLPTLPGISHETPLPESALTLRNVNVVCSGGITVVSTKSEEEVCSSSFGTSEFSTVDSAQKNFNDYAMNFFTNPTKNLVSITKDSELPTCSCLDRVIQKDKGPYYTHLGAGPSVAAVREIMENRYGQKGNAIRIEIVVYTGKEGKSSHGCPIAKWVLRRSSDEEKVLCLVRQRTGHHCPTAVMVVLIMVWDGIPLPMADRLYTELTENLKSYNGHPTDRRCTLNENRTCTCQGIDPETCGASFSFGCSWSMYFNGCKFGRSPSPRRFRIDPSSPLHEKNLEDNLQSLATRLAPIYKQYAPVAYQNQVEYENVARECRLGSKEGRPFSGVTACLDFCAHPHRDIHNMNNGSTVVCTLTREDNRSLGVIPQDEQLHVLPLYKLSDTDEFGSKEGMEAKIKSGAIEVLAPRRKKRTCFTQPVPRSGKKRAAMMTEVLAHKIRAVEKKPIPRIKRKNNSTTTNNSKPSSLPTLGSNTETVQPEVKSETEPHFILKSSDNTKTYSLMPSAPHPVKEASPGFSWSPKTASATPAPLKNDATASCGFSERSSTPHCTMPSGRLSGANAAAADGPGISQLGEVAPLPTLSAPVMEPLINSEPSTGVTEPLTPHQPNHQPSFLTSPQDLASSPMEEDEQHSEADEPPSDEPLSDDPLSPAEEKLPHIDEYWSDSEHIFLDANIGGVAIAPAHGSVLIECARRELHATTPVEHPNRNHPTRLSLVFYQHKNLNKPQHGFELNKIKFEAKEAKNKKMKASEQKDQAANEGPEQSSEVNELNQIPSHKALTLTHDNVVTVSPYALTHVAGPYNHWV
UniProt Q13547: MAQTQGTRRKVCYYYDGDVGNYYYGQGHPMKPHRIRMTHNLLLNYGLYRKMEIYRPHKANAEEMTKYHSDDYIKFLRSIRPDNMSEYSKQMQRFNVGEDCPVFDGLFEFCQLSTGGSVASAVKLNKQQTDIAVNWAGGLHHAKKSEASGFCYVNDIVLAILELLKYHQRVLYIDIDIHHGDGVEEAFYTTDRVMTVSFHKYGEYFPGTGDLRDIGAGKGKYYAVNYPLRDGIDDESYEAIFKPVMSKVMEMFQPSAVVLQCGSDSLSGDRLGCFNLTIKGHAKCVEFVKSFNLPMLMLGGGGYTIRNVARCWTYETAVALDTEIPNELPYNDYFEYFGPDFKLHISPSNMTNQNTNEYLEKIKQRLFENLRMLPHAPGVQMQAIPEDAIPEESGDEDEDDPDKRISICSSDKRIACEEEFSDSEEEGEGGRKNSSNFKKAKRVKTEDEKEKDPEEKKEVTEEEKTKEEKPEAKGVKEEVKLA
UniProt Q92769: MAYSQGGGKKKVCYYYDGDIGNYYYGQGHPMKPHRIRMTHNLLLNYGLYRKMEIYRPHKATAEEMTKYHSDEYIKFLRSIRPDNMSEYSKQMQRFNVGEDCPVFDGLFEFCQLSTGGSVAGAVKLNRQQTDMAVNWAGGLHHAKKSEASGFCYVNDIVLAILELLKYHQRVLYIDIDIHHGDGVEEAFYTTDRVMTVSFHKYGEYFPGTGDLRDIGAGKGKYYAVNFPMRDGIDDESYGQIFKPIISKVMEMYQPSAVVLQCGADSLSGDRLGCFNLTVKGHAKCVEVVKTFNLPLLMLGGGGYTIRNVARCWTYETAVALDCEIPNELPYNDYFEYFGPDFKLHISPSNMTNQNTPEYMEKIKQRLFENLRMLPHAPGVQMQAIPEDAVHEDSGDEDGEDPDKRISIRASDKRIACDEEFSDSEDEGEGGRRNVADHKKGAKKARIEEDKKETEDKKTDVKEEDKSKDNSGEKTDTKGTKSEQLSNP

Target: Ten eleven translocation 1 (TET1) (human (endogenous in HTori3 and 8505C)) (UniProt Q8NFU7)
Test: co-IP; cell lysates (HTori3, 8505C) incubated with primary antibodies or IgG overnight at 4 °C, then 4 h at 4 °C with protein A/G-agarose beads; washed with RIPA buffer; western blotting

Row | binding | Substance
1 | binds | histone deacetylase 1 (HDAC1) (from UniProt Q13547 1-482)
2 | no binding | HDAC2 (from UniProt Q92769 1-488)
